Each structure is given as a SMILES string. Read-outs that look alike come from different tables or passages of the source.

These results are taken from patent publication US12398138B2, “FGFR inhibitor compound in solid form and preparation method therefor” (CSPC ZHONGQI PHARMACEUTICAL TECHNOLOGY (SHIJIAZHUANG) CO., …, priority 2019, dated 2025).

A short description of this data set: Pharmacokinetic investigation in dogs. Type of data set: in vivo. The conditions noted are these: male, dog, plasma, beagle dogs, read-out: Concentration integral AUC. An excerpt:
The experiments aimed to test the pharmacokinetics of the test compound in beagle dogs.
Two beagle dogs were selected as one group. The compound was formulated into a designated preparation. The vehicle for intravenous injection was a mixture of DMSO: polyethylene glycol […] (PEG400): saline=10:40:50 (volume ratio) or a mixture of 10% DMSO/10% solutol/80% water. The vehicle for oral administration was a mixture of 0.5% methylcellulose (MC)+0.2% Tween. Each animal was given the preparation intragastrically at a predetermined dosage. […]
The plasma concentration of the compound was processed using a non-compartmental model by WinNonlin™ Version 6.3.0 (Pharsight, Mountain View, Calif.) pharmacokinetic software. The peak concentration (Cmax), time of maximum plasma concentration (Tmax), and time of the last quantifiable concentration, were determined directly from the curve of plasma concentration−time. […]
For the individual plasma concentration below the detection line, when it appeared before Tmax, it was calculated as 0; when it appeared after Tmax, it was directly excluded. […]
In these experiments, the pharmacokinetic parameters were calculated based on the theoretical blood collection time and theoretical administration concentration in the embodiments. […]

With `C=CC(=O)N1CC[C@H](n2nc(C#Cc3cc(OC)cc(OC)c3)c3c(N)ncnc32)C1` [reference compound 1, reference compound], the AUC (1 mg/kg, intravenous administration (1 mpk)) amounted to 2.29 µM·h and the AUC (5 mg/kg, oral administration (5 mpk)) stood at 4.67 µM·h.
